The nature of the assay: qHTS Assay for Lipid Storage Modulators in Drosophila S3 Cells.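 On cell number change: cells counted by Cell Tracker Red CMTPX staining in the red channel.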 Conditions: BODIPY lipid droplet fluorescence, 18-24 h; for cell number change: measured here: cell count max response, cells fed with added oleic acid. A digest of the protocol:
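Drosophila S3 cells loaded with oleic acid (400 uM, as added) and compounds at several concentrations; lipid droplets imaged by 488-nm laser-scanning cytometry, 500–530 nm intensity and object ratio to cell channel. Percent activity normalized to 20 uM Triacsin C.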
Background: qHTS replaces the single test concentration by a dilution series.

The mark [1] stands for this setting: measured here: lipid fluorescence (Fed channel) AC50, cells fed with added oleic acid.
The mark [2] stands for this setting: measured here: cell number channel AC50, cells fed with added oleic acid.

We go through 60 molecules from PubChem BioAssay AID2685 (National Center for Advancing Translational Sciences (NCATS), 2010).

What is called AC50 is the midpoint of the concentration-response curve, whichever way the signal moves. High values mean activity only at high concentration, low ones activity at low concentration.

The list shows a part of the results. These are further read-outs of the screen, such as a control signal, another cell line or another target. No call is given for them. The list favours compounds with an active or inconclusive main result. Potencies come from curve fits of mixed quality, noted in brackets.

As to `COc1ccc(/C(O)=C2/C(=O)C(=O)N(c3ccccn3)C2c2ccc(OC)cc2)cc1` (stereo unspecified), the cell number change is -16.7%. Moreover, the AC50 under setting [1] was 29.1 µM [falling, single point].
As to `COC(=O)CCc1c(C)c(C(=O)c2ccc(F)cc2)c2ccccn12`, the AC50 by setting is: under setting [2], 0.116 µM [rising, full curve, poor fit]; under setting [1], 0.103 µM [rising, partial curve, poor fit].
As for `CC(=O)N1CCc2cc(S(=O)(=O)NC(CC(C)C)C(=O)N3CCCC3)ccc21` (stereo unspecified), the cell number change was -7.63%.
As to `CCOC(=O)C(C(=O)OCC)C(C)(C)/C(C)=N\Nc1ccc([N+](=O)[O-])cc1[N+](=O)[O-]`, the cell number change was -44.4%. Also, the concentration at half-maximal activity (AC50) under setting [2] was 32.6 µM [falling, single point]. The half-maximal activity concentration (AC50) under setting [1] is 18.4 µM [falling, partial curve].
Turning to `Cn1c(CNC(=O)c2ccc3c(c2)OCO3)nnc1SCC(=O)Nc1ccccc1Cl`, the cell number change was determined as 19.2%. Besides, under setting [1], the concentration at half-maximal activity (AC50) was 9.2 µM [rising, partial curve, poor fit].
`COC(=O)c1scc2c(Oc3ccccc3)cc(C(F)(F)F)nc12`: the cell number change was found to be 30.4%. Moreover, under setting [2], the half-maximal activity concentration (AC50) is 18.4 µM [rising, single point]. The AC50 under setting [1] is 16.4 µM [rising, single point].
Turning to `COc1ccc2c(c1)[nH]c1c(=O)n(Cc3ccccn3)cnc12`, the cell number change was -33.5%. Also, the AC50 under setting [2] is 25.9 µM [falling, partial curve, poor fit]. For the same molecule, the concentration at half-maximal activity (AC50) under setting [1] is 0.651 µM [rising, full curve].
In the case of `COc1ccc(NC(=O)CS(=O)CC(=O)Nc2cccnc2)cc1` (stereo unspecified), the cell number change is 17.4%. Further, the half-maximal activity concentration (AC50) under setting [1] is 6.51 µM [falling, single point].
In the case of `O=C(O[C@H]1[C@H](Cc2ccccc2)NS(=O)(=O)[C@H]2C[C@@H]3C=C[C@]12O3)c1ccc([N+](=O)[O-])cc1`, the cell number change is 1.08%. The AC50 under setting [1] was 2.59 µM [rising, full curve].
On to `Cc1ccc(N/C=C(/C#N)c2ccsc2)cc1`, for which the cell number change is -8.56%. Moreover, the concentration at half-maximal activity (AC50) under setting [2] is 0.00461 µM [falling, full curve, poor fit]. In addition, under setting [1], the concentration at half-maximal activity (AC50) was 0.651 µM [rising, single point].
Turning to `C/C(CC(=O)Nc1cccc(F)c1)=N\NC(=O)c1ccncc1`, the cell number change is -7.65%.
With `O=C(Cc1cccs1)Nc1ccccc1C(=O)O`, the AC50 under setting [2] was 3.26 µM [falling, partial curve, poor fit].
As for `CCN(CC(=O)Nc1ccc(N2CCOCC2)cc1)C(=O)c1ccc(C#N)cc1`, the cell number change was -22%.
On to `CCc1ccc2oc(C(=O)NCc3ccncc3)c(C)c2c1`, for which the cell number change was -26.6%. Moreover, under setting [1], the half-maximal activity concentration (AC50) was 29.1 µM [falling, single point].
For the molecule `O=C1CCCc2nc(N3CCCCC3)sc21`, under setting [1], the half-maximal activity concentration (AC50) was 0.058 µM [falling, full curve, poor fit].
Consider `CC(=O)c1ccccc1C(=O)N1CCCC(N2CCN(Cc3ccc4c(c3)OCO4)CC2)C1` (stereo unspecified), for which the cell number change worked out at 35.6%.
With `Clc1ccccc1CSc1ncccn1`, the cell number change came out at 6.56%. Moreover, the half-maximal activity concentration (AC50) under setting [1] was 29.1 µM [falling, single point].
In the case of `Cc1c(OCC(=O)N2CCC(C(N)=O)CC2)ccc2c1oc(=O)c1ccccc12`, the cell number change came out at 2.94%. Moreover, the AC50 under setting [1] is 1.03 µM [falling, full curve].
As to `Oc1ccc(C(=S)N2CCN(Cc3ccccc3)CC2)cc1`, the cell number change is -9.87%. In addition, the half-maximal activity concentration (AC50) under setting [1] is 1.3 µM [falling, full curve, poor fit].
In the case of `CCCCCCc1nnc(NC(=O)OCC)s1`, the cell number change came to 11%. Under setting [1], the AC50 is 29.1 µM [rising, single point].
Consider `CC(C)Sc1nnc([C@H](C)NC(=O)OC(C)(C)C)o1`, for which the AC50 under setting [1] is 0.259 µM [falling, full curve, poor fit].
Turning to `CCOc1ccc(CCNC(=O)C2CCN(C(=O)N(C)C)CC2)cc1OCC`, the cell number change came to 14.8%. Besides, under setting [1], the concentration at half-maximal activity (AC50) was 29.1 µM [rising, single point].
Take `CCOCCCN(C(=O)CCC(=O)Nc1cc(C)on1)C(C(=O)NC(C)(C)C)c1ccccc1Cl` (stereo unspecified): the cell number change was -8.26%.
As for `COc1cc(S(=O)(=O)Nc2ccccc2C)ccc1Cl`, the cell number change was -68.4%. Moreover, the AC50 under setting [2] is 32.6 µM [falling, single point]. Besides, the AC50 under setting [1] was 29.1 µM [falling, single point].
With `COc1cc(OC)cc(C(=O)Nc2ccccc2S(=O)(=O)N2CCCC2OC(C)=O)c1` (stereo unspecified), the cell number change is -1.89%. Further, under setting [1], the AC50 was 10.3 µM [falling, single point].
On to `Cc1ccc(-c2nnc(NC(=O)CCS(=O)(=O)c3ccc(F)cc3)o2)c(C)c1`, for which the cell number change came to 24.5%.
As to `CCn1cc(C(=O)NCCCOC(C)C)c(=O)c2cc(S(=O)(=O)N3CCC(C)CC3)ccc21`, the cell number change was 10.5%. Besides, the half-maximal activity concentration (AC50) under setting [1] was 5.8 µM [falling, single point].
As for `CCCN(CCC)Cc1c(C(=O)N/N=C/C(C)=C\c2ccco2)nnn1-c1nonc1N`, the half-maximal activity concentration (AC50) under setting [1] is 1.64 µM [falling, full curve, poor fit].
Regarding `O=C(COc1ncnc2ccccc12)NCc1ccc2c(c1)OCO2`, the cell number change stood at 49.4%. Further, under setting [2], the AC50 is 29.1 µM [rising, single point].
For the molecule `CC(=O)Nc1cccc2c1Cc1ccccc1-2`, the cell number change is -2.47%. Moreover, the AC50 under setting [1] was 29.1 µM [rising, single point].
On to `CCC(CO)Nc1ncnc2onc(-c3ccc(F)cc3)c12` (stereo unspecified), for which the cell number change is -3.52%.
Take `O=C1CCNc2c(Cl)cccc21`: under setting [1], the AC50 was 3.66 µM [falling, single point].
As to `Cc1sc2ncnc(NCC(O)c3ccc([N+](=O)[O-])cc3)c2c1C` (stereo unspecified), the cell number change worked out at 1.3%. Besides, under setting [1], the AC50 was 18.4 µM [falling, partial curve].
As for `Cn1c(SCCC#N)nnc1-c1ccc(F)cc1`, the cell number change is -46.1%. Besides, the AC50 under setting [2] is 0.461 µM [falling, full curve]. Further, the concentration at half-maximal activity (AC50) under setting [1] is 0.731 µM [falling, full curve].
On to `O=C(c1ccccc1)c1nn(-c2ccccc2)c(=O)cc1C(F)(F)F`, for which the cell number change is 30.1%. Under setting [2], the AC50 was 0.146 µM [rising, full curve, poor fit]. Besides, under setting [1], the concentration at half-maximal activity (AC50) was 36.6 µM [rising, partial curve, poor fit].
Regarding `C/C(=N\NC(=O)COc1ccc(C(C)(C)C)cc1)c1ccc(N2CCOCC2)cc1`, the cell number change is -14.4%. In addition, the AC50 under setting [2] was 2.06 µM [rising, partial curve]. Under setting [1], the concentration at half-maximal activity (AC50) was 0.461 µM [rising, full curve].
Consider `CCCC(=O)Nc1c2c(nn1-c1ccccc1)CSC2`, for which the cell number change was 3.95%. Further, the AC50 under setting [1] is 18.4 µM [rising, partial curve].
In the case of `O=C(NCC(=O)N1CCCCC1)c1sc2ccccc2c1Cl`, the cell number change is -13.7%.
In the case of `c1ccc(COc2ccccc2CNC23CC4CC(CC(C4)C2)C3)cc1`, the cell number change was -22.5%. In addition, the concentration at half-maximal activity (AC50) under setting [1] is 29.1 µM [falling, single point].
On to `CCC(C)NC(=O)c1ccc(C(=O)c2ccccc2)cc1` (stereo unspecified), for which the cell number change is -46.8%. Also, under setting [2], the concentration at half-maximal activity (AC50) was 0.651 µM [falling, full curve]. The AC50 under setting [1] was 4.11 µM [falling, full curve].
As for `C=CCNC(=O)COc1coc(CN2CCN(C(=O)c3ccco3)CC2)cc1=O`, the cell number change was determined as 1.36%. Also, the concentration at half-maximal activity (AC50) under setting [1] was 20.6 µM [rising, single point].
For the molecule `Cc1occc1-c1nc(-c2ccccn2)no1`, the cell number change was -4.8%. Further, the half-maximal activity concentration (AC50) under setting [1] was 2.06 µM [rising, full curve].
In the case of `O=C1C2CCCN2C(c2ccco2)N1c1ccc(F)cc1` (stereo unspecified), the cell number change was -22.1%.
In the case of `O=C(O)c1ccccc1C(=O)OCCCc1ccncc1`, the cell number change is 13.7%. For the same molecule, the concentration at half-maximal activity (AC50) under setting [1] was 29.1 µM [rising, single point].
Take `CCCCC(=O)NC(=S)Nc1cccc(NC(=O)CC)c1`: the cell number change was -16.4%. Also, the half-maximal activity concentration (AC50) under setting [1] was 0.116 µM [falling, full curve, poor fit].
Take `N#CC1=C2SCCN2C(=O)C(C#N)C12CCCCC2` (stereo unspecified): the cell number change is -14.5%. The AC50 under setting [1] is 7.31 µM [rising, single point].
`COC(=O)CSc1nccc(C)n1`: the cell number change is -12.3%. For the same molecule, the AC50 under setting [1] is 0.731 µM [falling, full curve].
For `Cc1ccc2c(=O)c(CN3CCCCCC3)c(C)[nH]c2c1C`, the cell number change was -10%. For the same molecule, under setting [1], the half-maximal activity concentration (AC50) is 3.66 µM [rising, full curve, poor fit].
With `O=C(O)c1ccc(CS(=O)c2cccc(C(F)(F)F)c2)o1` (stereo unspecified), the cell number change was -30.6%. The concentration at half-maximal activity (AC50) under setting [2] is 16.4 µM [falling, single point]. The AC50 under setting [1] is 16.4 µM [falling, single point].
For `CC(=O)O[C@H]1CC[C@]2(C)[C@H]3CC=C4[C@@H]5[C@@H](C)[C@H](C)CC[C@]5(C(=O)O)CC[C@@]4(C)[C@]3(C)CC[C@H]2C1(C)C`, the cell number change was determined as 21.1%. Besides, the AC50 under setting [1] is 6.51 µM [falling, partial curve, poor fit].
`Cc1ccc(CNC(=O)COc2ccc(S(=O)(=O)N3CCOCC3)cc2)cc1`: the cell number change stood at 3.74%. For the same molecule, the AC50 under setting [1] is 29.1 µM [rising, partial curve, poor fit].
For `CC(C)NC(=O)NC(=O)COC(=O)C1(C)CC1(Cl)Cl` (stereo unspecified), the cell number change worked out at 37.4%.
On to `COc1cccc(NC(=O)c2cnc(SCC(=O)NCc3ccc4c(c3)OCO4)n(C)c2=O)c1`, for which the cell number change came to 32.9%. Besides, the concentration at half-maximal activity (AC50) under setting [2] was 0.206 µM [rising, full curve]. In addition, the half-maximal activity concentration (AC50) under setting [1] is 0.411 µM [rising, full curve].
`CCn1cc(CN2CCCC(CNC(=O)COc3ccccc3OC)C2)c(C)n1` (stereo unspecified): the cell number change was 15.6%. Under setting [1], the AC50 is 6.51 µM [falling, single point].
`Cc1cc(=O)oc2cc(NC(=O)c3ccc(OC(F)F)cc3)ccc12`: the cell number change is -1.32%.
For `O=C(c1cc(-c2ccco2)on1)N1CCc2ccccc2C1`, the cell number change was -33.9%. Besides, the AC50 under setting [2] is 11.6 µM [falling, partial curve]. Also, the AC50 under setting [1] was 1.84 µM [falling, full curve].
For the molecule `COc1ccccc1CNC(=O)COC(=O)c1cc(-c2ccco2)nc2ccccc12`, under setting [1], the AC50 was 0.517 µM [rising, single point].
With `COCC(=O)N1CCC(Oc2ccc(C(=O)NC(C)c3nccs3)cc2)CC1` (stereo unspecified), the cell number change worked out at 20.2%. Also, under setting [2], the AC50 is 0.651 µM [rising, full curve, poor fit].
Take `O=C(OCc1ccc([N+](=O)[O-])cc1)c1ccccn1`: the cell number change was -11%. The concentration at half-maximal activity (AC50) under setting [2] is 0.112 µM [falling, full curve, poor fit]. Besides, the AC50 under setting [1] is 0.112 µM [falling, full curve, poor fit].
In the case of `COC(=O)c1ccc(CSc2nc3ccccc3c(=O)n2Cc2ccco2)o1`, the cell number change worked out at 118%. For the same molecule, under setting [1], the half-maximal activity concentration (AC50) is 29.1 µM [rising, single point].
